From publication PMC4814551
Results are given in words; binding and its absence hold for the method and conditions named. For some assays here: Binding calls can cover weak binding; strength is not graded here. For some assays here: Binding seen in cells or lysates may run through a third protein. For some assays here: Sequences can lack the tags named with a protein. One block for each binder: values may come before it.

Key:
[1] = target: TaSnRK2.10 (GAL4BD fusion) (Triticum aestivum (wheat)); experiment: two-hybrid; MatchMaker GAL4 two-hybrid system-3, yeast AH109; GAL4BD:TaSnRK2s (pGBKT7) with GAL4AD:TaABI1 (pGADT7); SD media -LW, -LWH + 10 mM 3-AT, -LWHA + 30 mM 3-AT
[2] = target: TaSnRK2.8 (GAL4BD fusion) (Triticum aestivum (wheat)); experiment: as above
[3] = target: TaSnRK2.9 (GAL4BD fusion) (Triticum aestivum (wheat)); experiment: as above
[4] = target: TaSnRK2.8-YFP^N (TaSnRK2:HA fusion) (Triticum aestivum (wheat)); experiment: split reporter; BiFC with split YFP in epidermal cells of tobacco leaves, Agrobacterium infiltration, confocal microscopy 4 days after infiltration
[5] = target: TaSnRK2.3-YFP^N (TaSnRK2:HA fusion) (Triticum aestivum (wheat)); experiment: as above
[6] = target: TaSnRK2.1-YFP^N (TaSnRK2:HA fusion) (Triticum aestivum (wheat)); experiment: as above
[7] = target: TaSnRK2.2-YFP^N (TaSnRK2:HA fusion) (Triticum aestivum (wheat)); experiment: as above
[8] = target: TaSnRK2.7-YFP^N (TaSnRK2:HA fusion) (Triticum aestivum (wheat)); experiment: as above
[9] = target: TaSnRK2.5-YFP^N (TaSnRK2:HA fusion) (Triticum aestivum (wheat)); experiment: as above
[10] = target: TaSnRK2.6-YFP^N (TaSnRK2:HA fusion) (Triticum aestivum (wheat)); experiment: as above
[11] = target: TaSnRK2.4-YFP^N (TaSnRK2:HA fusion) (Triticum aestivum (wheat)); experiment: as above
[12] = target: TaSnRK2.9-YFP^N (TaSnRK2:HA fusion) (Triticum aestivum (wheat)); experiment: as above
[13] = target: TaSnRK2.10-YFP^N (TaSnRK2:HA fusion) (Triticum aestivum (wheat)); experiment: as above
[14] = target: TaSnRK2.8-YFP^N (TaSnRK2:HA fusion) (Triticum aestivum (wheat)); experiment: co-IP; extracts of transfected tobacco leaves in PBS with 0.05% Triton X-100, 1 mM EDTA, protease inhibitors; HA-tagged proteins precipitated on anti-HA micro MACS beads, blot with anti-myc (the legend of Figure 4C says the reverse)
[15] = target: TaSnRK2.3-YFP^N (TaSnRK2:HA fusion) (Triticum aestivum (wheat)); experiment: as above
[16] = target: TaSnRK2.1-YFP^N (TaSnRK2:HA fusion) (Triticum aestivum (wheat)); experiment: as above
[17] = target: TaSnRK2.2-YFP^N (TaSnRK2:HA fusion) (Triticum aestivum (wheat)); experiment: as above
[18] = target: TaSnRK2.7-YFP^N (TaSnRK2:HA fusion) (Triticum aestivum (wheat)); experiment: as above
[19] = target: TaSnRK2.5-YFP^N (TaSnRK2:HA fusion) (Triticum aestivum (wheat)); experiment: as above
[20] = target: TaSnRK2.6-YFP^N (TaSnRK2:HA fusion) (Triticum aestivum (wheat)); experiment: as above
[21] = target: TaSnRK2.4-YFP^N (TaSnRK2:HA fusion) (Triticum aestivum (wheat)); experiment: as above
[22] = target: TaSnRK2.9-YFP^N (TaSnRK2:HA fusion) (Triticum aestivum (wheat)); experiment: as above
[23] = target: TaSnRK2.10-YFP^N (TaSnRK2:HA fusion) (Triticum aestivum (wheat)); experiment: as above

binding [1]: binds | binding [2]: binds | binding [3]: binds
B1: TaABI1 (GAL4AD:TaABI1) (protein, UniProt A5A6P8 1-479)
chain: MEDVAVAALATAPTPVFSPATAGLTLIAAAAAEPIAAVVAGAMEGVPVTFSVPPVRTTTDDGLPAATGGEGGEASAAGSPCSVTSDCSSVASADFEGVGLGFFGAGVEGGAVVFEDSAASAATVEAEARVAAGGRSVFAVECVPLWGFTSICGRRPEMEDAVIAVPRFFGLPLWMLTGNNMVDGLDPISFRLPAHFFGVYDGHGGAQVADYCRDRLHAALVEELSRIEGSVSGANLGAVEFKKQWEKAFVDCFSRVDDEIAGKVTSGGGGNVGTSSVTAMGMVDPVAPETVGSTAVVAVICSSHIIVSNCGDSRAVLCRGKQPVPLSVDHKPNREDEYARIEAEGGKVIQWNGYRVFGVLAMSRSIGDRYLKPWIIPVPEVTIVPRAKDDECLILASDGLWDVLSNEEVCDVARKRILLWHKKNGVNLSSAQRSGDSPDPAAQAAAECLSKLALQKGSKDNITVIVVDLKAQRKFKSKT

binding [4]: binds | binding [5]: no binding | binding [6]: no binding | binding [7]: no binding | binding [8]: no binding | binding [9]: no binding | binding [10]: no binding | binding [11]: no binding | binding [12]: binds | binding [13]: binds | binding [14]: binds | binding [15]: no binding | binding [16]: no binding | binding [17]: no binding | binding [18]: no binding | binding [19]: no binding | binding [20]: no binding | binding [21]: no binding | binding [22]: binds | binding [23]: binds
B2: TaABI1-YFP^C (TaABI1:c-myc fusion) (protein, UniProt A5A6P8 1-479)
chain: MEDVAVAALATAPTPVFSPATAGLTLIAAAAAEPIAAVVAGAMEGVPVTFSVPPVRTTTDDGLPAATGGEGGEASAAGSPCSVTSDCSSVASADFEGVGLGFFGAGVEGGAVVFEDSAASAATVEAEARVAAGGRSVFAVECVPLWGFTSICGRRPEMEDAVIAVPRFFGLPLWMLTGNNMVDGLDPISFRLPAHFFGVYDGHGGAQVADYCRDRLHAALVEELSRIEGSVSGANLGAVEFKKQWEKAFVDCFSRVDDEIAGKVTSGGGGNVGTSSVTAMGMVDPVAPETVGSTAVVAVICSSHIIVSNCGDSRAVLCRGKQPVPLSVDHKPNREDEYARIEAEGGKVIQWNGYRVFGVLAMSRSIGDRYLKPWIIPVPEVTIVPRAKDDECLILASDGLWDVLSNEEVCDVARKRILLWHKKNGVNLSSAQRSGDSPDPAAQAAAECLSKLALQKGSKDNITVIVVDLKAQRKFKSKT
